The data set is described as follows: Residual DXSP in steroid-eluting leads removed from subjects (Case Study #2). Type of data set: in vivo, human and canine.

For `C[C@@H]1C[C@H]2[C@@H]3CCC4=CC(=O)C=C[C@]4(C)[C@@]3(F)[C@@H](O)C[C@]2(C)[C@@]1(O)C(=O)COP(=O)(O)O` [DSP, dexamethasone sodium phosphate], the “release in the first year” value was 0.6 to 0.7 mg. For the setting “first year”, this compound showed an average release of 1.6 to 1.9 µg/day.

The values are drawn from patent US20220338769A1, “METHODS AND APPARATUS FOR SUBSTANCE DELIVERY IN AN IMPLANTABLE DEVICE” (GlySens Incorporated, priority 2021, published 2022).
